PubChem BioAssay AID1259425, University of Nebraska Medical Center, 2018
In all, the deposit lists about 14,000 reagents; this is a random part of them. The record does not give: the time to read-out.

- Assay: 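Find knockdowns that reproduce the gene expression pattern seen when KSR1 is lost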 (primary screen)
- System: HCT116 human colon cancer cells
- Reagent: siRNA pool against human genes, 50 nM siRNA
- Measurement: 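After 50 nM siRNA pool, branched-DNA assay measures six marker transcripts per well, minus blank, normalised to the geometric mean of two housekeeping transcripts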
- Reading the numbers: BNIP3L mRNA: higher = more BNIP3L transcript after knockdown; NDRG1 mRNA: higher = more NDRG1 transcript after knockdown; BNIP3 mRNA: higher = more BNIP3 transcript after knockdown; ALDOC mRNA: higher = more ALDOC transcript after knockdown; ACSL5 mRNA: higher = more ACSL5 transcript after knockdown

The first 3 records as a preview:
| gene symbol | BNIP3L mRNA, set 1 | NDRG1 mRNA, set 1 | BNIP3 mRNA, set 1 | ALDOC mRNA, set 1 | ACSL5 mRNA, set 1 |
| --- | --- | --- | --- | --- | --- |
| CCDC62 (GeneID 84660) | 0.0917 | 0.352 | 0.34 | 0.0464 | 0.235 |
| PLEKHM2 (GeneID 23207) | 0.191 | 0.47 | 0.347 | 0.0239 | 0.173 |
| EQTN (GeneID 54586) | 0.157 | 0.274 | 0.242 | 0.0284 | 0.191 |

The list itself, from the start:
| gene symbol | BNIP3L mRNA, set 1 | NDRG1 mRNA, set 1 | BNIP3 mRNA, set 1 | ALDOC mRNA, set 1 | ACSL5 mRNA, set 1 |
| --- | --- | --- | --- | --- | --- |
| CCDC62 (GeneID 84660) | 0.0917 | 0.352 | 0.34 | 0.0464 | 0.235 |
| PLEKHM2 (GeneID 23207) | 0.191 | 0.47 | 0.347 | 0.0239 | 0.173 |
| EQTN (GeneID 54586) | 0.157 | 0.274 | 0.242 | 0.0284 | 0.191 |
| TP53I11 (GeneID 9537) | 0.152 | 0.175 | 0.302 | 0.0321 | 0.0467 |
| IFT46 (GeneID 56912) | 0.144 | 0.176 | 0.348 | 0.0108 | 0.134 |
| PCSK7 (GeneID 9159) | 0.109 | 0.272 | 0.272 | 0.0173 | 0.0571 |
| TIMM21 (GeneID 29090) | 0.141 | 0.188 | 0.234 | 0.0216 | 0.138 |
| DGKZ (GeneID 8525) | 0.246 | 0.459 | 1.32 | 0.0734 | 0.13 |
| WDR41 (GeneID 55255) | 0.0711 | 0.275 | 0.223 | 0.0139 | 0.103 |
| DR1 (GeneID 1810) | 0.0748 | 0.299 | 0.243 | 0.0315 | 0.125 |
| DDX28 (GeneID 55794) | 0.0862 | 0.16 | 0.299 | 0.0537 | 0.134 |
| ALK (GeneID 238) | 0.0853 | 0.079 | 0.249 | 0.00817 | 0.129 |
| R3HCC1L (GeneID 27291) | 0.0802 | 0.216 | 0.302 | 0.0326 | 0.155 |
| PRR14 (GeneID 78994) | 0.172 | 0.209 | 0.335 | 0.0444 | 0.202 |
| ZNF132 (GeneID 7691) | 0.214 | 1.28 | 0.517 | 0.106 | 0.261 |
| LZIC (GeneID 84328) | 0.212 | 0.278 | 0.323 | 0.159 | 0.309 |
| GREM1 (GeneID 26585) | 0.0512 | 0.124 | 0.206 | 0.00701 | 0.0572 |
| ILF3 (GeneID 3609) | 0.0984 | 0.28 | 0.325 | 0.0178 | 0.27 |
| ACP1 (GeneID 52) | 0.0937 | 0.248 | 0.225 | 0.0243 | 0.18 |
| PSMA5 (GeneID 5686) | 0.545 | 1.55 | 0.621 | 0.0973 | 0.676 |
| PTHLH (GeneID 5744) | 0.13 | 0.188 | 0.336 | 0.089 | 0.0814 |
| NELFCD (GeneID 51497) | 0.138 | 0.264 | 0.431 | 0.0853 | 0.366 |
| DLL1 (GeneID 28514) | 0.0832 | 0.0555 | 0.407 | 0.00837 | 0.147 |
| AARSD1 (GeneID 80755) | 0.0686 | 0.335 | 0.259 | 0.018 | 0.343 |
| UBE2R2 (GeneID 54926) | 0.0478 | 0.0849 | 0.142 | 0.0304 | 0.124 |
| ADGRL4 (GeneID 64123) | 0.206 | 0.159 | 0.302 | 0.0663 | 0.249 |
| MKRN2 (GeneID 23609) | 0.108 | 0.075 | 0.265 | 0.0221 | 0.161 |
| SPG11 (GeneID 80208) | 0.1 | 0.466 | 0.347 | 0.0192 | 0.116 |
| CCDC33 (GeneID 80125) | 0.0951 | 0.238 | 0.253 | 0.0235 | 0.186 |
| FCGR2B (GeneID 2213) | 0.0448 | 0.0533 | 0.231 | 0.00853 | 0.0886 |
| ATP5MK (GeneID 84833) | 0.156 | 0.394 | 0.329 | 0.0667 | 0.0847 |
| CYP2W1 (GeneID 54905) | 0.0696 | 0.215 | 0.205 | 0.0169 | 0.234 |
| MYL12A (GeneID 10627) | 0.144 | 0.276 | 0.385 | 0.0487 | 0.326 |
| ANKRA2 (GeneID 57763) | 0.0802 | 0.0998 | 0.169 | 0.0174 | 0.0746 |
